pIC50: −log10 of the molar value. The name of at least one read-out is uncertain.
Molecular target: human A3 AR
Test: Inhibition of radioligand binding to human A3 AR
Details: read-out: potency to inhibit radioligand binding to human A3 AR

## Cn1c(=O)c2[nH]cnc2n(C)c1=O [theophylline]
  pIC50: 4.70

From US5854081A, “Stable expression of human A2B adenosine receptors, and assays employing the same” (The University of Patent Foundation, priority 1996, dated 1998)
